Primary screen of a compound library

Sequences of proteins named here, by UniProt entry; tags and fusion partners are left off. Residues count along the entry.
UniProt Q4DA54, 1-478: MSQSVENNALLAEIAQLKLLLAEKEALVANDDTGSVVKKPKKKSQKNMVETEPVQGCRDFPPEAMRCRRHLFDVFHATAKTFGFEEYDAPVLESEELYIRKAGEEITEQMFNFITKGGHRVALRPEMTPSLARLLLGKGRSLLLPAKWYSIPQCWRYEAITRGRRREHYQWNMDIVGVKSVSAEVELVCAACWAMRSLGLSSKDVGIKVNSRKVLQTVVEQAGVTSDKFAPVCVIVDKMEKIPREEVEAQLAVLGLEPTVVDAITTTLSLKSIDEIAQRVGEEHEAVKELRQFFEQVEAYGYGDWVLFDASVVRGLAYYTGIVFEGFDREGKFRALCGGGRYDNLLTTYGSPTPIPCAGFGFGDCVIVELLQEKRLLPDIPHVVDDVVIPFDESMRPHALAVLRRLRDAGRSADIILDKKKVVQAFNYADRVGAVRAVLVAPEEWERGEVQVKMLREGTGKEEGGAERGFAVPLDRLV
UniProt P9WNZ1, whole entry: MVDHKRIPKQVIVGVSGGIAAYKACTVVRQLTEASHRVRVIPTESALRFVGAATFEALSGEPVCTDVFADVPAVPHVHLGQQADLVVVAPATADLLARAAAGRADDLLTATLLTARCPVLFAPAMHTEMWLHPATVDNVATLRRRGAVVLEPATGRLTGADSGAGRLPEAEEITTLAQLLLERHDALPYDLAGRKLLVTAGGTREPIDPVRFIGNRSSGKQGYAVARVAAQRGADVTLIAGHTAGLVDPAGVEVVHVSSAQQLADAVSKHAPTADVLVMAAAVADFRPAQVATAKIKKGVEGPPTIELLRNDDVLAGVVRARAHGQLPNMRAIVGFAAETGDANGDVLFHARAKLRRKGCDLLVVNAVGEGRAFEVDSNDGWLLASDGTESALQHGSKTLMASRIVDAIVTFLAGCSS

Values are the deposited “Percent Effect”, in %. The record does not define 0% and 100%; most values in the screen are far below 50% and negative numbers occur (in some assays of this library far below -100). This is an unselected part of the compounds tested. Two or more numbers in one place are separate tests of the same structure; such repeats can differ widely. A dash means the value is not listed here; it may have been measured.

TcHisRS: 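Enzyme assay of histidyl-tRNA synthetase; the read-out is not stated. Target: Histidine-tRNA ligase, Trypanosoma cruzi CL Brener (UniProt Q4DA54). Tested at 30 µM. Higher reads as stronger inhibition (inferred: compounds with an IC50 in retests scored well above the rest). Of about 69,000 compounds tested this way, about 31 (0.045%) reached 50% or more in at least one test.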
CoaBC: 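Enzyme assay of CoaBC with a phosphate dye (Biomol Green) read at 650 nm. Target: Coenzyme A biosynthesis protein CoaBC, Mycobacterium tuberculosis (UniProt P9WNZ1). Compounds at 30 µM. Direction is inferred from only a few compounds that gave an IC50; most scored high, so higher reads as stronger inhibition. Most strong results did not repeat in a second test. About 67,000 compounds were tested under these conditions; 0.06% (about 40) showed 50% or more at least once.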

| compound | TcHisRS | CoaBC |
|---|---|---|
| `Fc1ccc2[nH]c(C3CCCN3CCCn3cccn3)nc2c1` (centres undefined) | 2.941 | 1.951 |
| `CN(Cc1nc(-c2cccs2)no1)Cc1nc2c(s1)CCCC2` | 6.878 | 4.888 |
| `Cc1nc(C2CCCN2C(=O)Cc2ccc(F)cc2)nc(O)c1C` (centres undefined) | 0 | 1.703 |
| `Cc1cc(CN2CCCC2Cn2cncn2)no1` (centres undefined) | -3.053 | -0.5181 |
| `CCc1cc(N2CCS(=O)(=O)CC2)n2nc(C)c(C)c2n1` | 3.409 | 6.21 |
| `CC(Cn1cccn1)NCc1csc(Cc2ccccc2)n1` (centres undefined) | 10.76 | 21.54 and 9.794 |
| `Cn1cc(-c2nnc3sc(C4CCC4)nn23)cn1` | -18.81 | -2.066 |
| `COCCN1C[C@@H](c2ccccc2)[C@@]2(CCN(CC(=O)N(C)C)C2=O)C1` | 2.913 | 0.9009 |
| `COCCn1cc(CC(=O)Nc2nc3c(s2)CCC3)c2ccccc21` | 26.73 | 1.094 |
| `CN(C)C(=O)N1CCC[C@]2(C(=O)N(C)C)CN(c3ccccn3)C[C@@H]2C1` | -0.9524 | 1.356 |
| `Cc1cc(CNc2ccccc2N2CCCCC2)no1` | 5.521 | 2.433 |
| `Cc1ccc(CNC(=O)N(Cc2ccccc2F)C2CC2)cn1` | 3.734 | -5.357 |
| `Cc1ccc(C)c(CS(=O)(=O)CC(=O)N(C)Cc2cccc(F)c2)c1` | 2.353 | -2.211 |
| `Cc1ccc(N2Cc3cnn(C)c3C(COCC3CC3)C2)nn1` (centres undefined) | 7.778 | 4.878 |
| `Cc1ccc(C(=O)N(C)Cc2nccn2CC(F)(F)F)cn1` | 6 | 3.821 |
| `O=C(CCNS(=O)(=O)c1cccnc1)N1CCCCC1` | 0 | 6.483 |
| `COCCCNC(=O)c1ccccc1-n1cc(CN(C)C)cn1` | 5.97 | 4.623 |
| `COCCCC1CCCCN1Cc1cc(F)ccc1-n1cccn1` (centres undefined) | 1.093 | 1.222 |
| `Cc1cc(S(=O)(=O)NC(=O)CCc2cncc(F)c2)c(C)s1` | 6.667 | 0 |
| `CN1CCC(N2CCOC3(CCCC3)C2)C1=O` (centres undefined) | 3.158 | -2.39 |
| `CCN(Cc1ccccn1)Cc1cc(Cl)ccc1OC` | 6.404 | -2.258 |
| `c1cc2c(cc1C1CCCN1Cc1nnnn1C1CC1)OCCO2` (centres undefined) | 0 | 8.017 |
| `Cc1cc(CNC(=O)COc2ccccc2F)c(C)o1` | 5.155 | 6.977 |
| `Cc1ccc(C(=O)N2CCC(Oc3ccc(F)cc3F)CC2)c(=O)[nH]1` | 1.901 | -1.596 |
| `O=C(CCn1ccc2ccccc21)N1CCC(Nc2cccnc2)CC1` | 14.94 | -0.3628 |
| `CN(C)c1cccc(C2CCCN2S(N)(=O)=O)c1` (centres undefined) | -7.792 | - |
| `Cc1cnn(CCNCc2csc(-c3ccccc3)n2)c1` | 13.61 | 4.436 |
| `COCc1nn(C(C)C)c2c1CCN(Cc1ccoc1)C2` | 2.632 | -2.836 |
| `CCOC(C)c1noc(CN(C)C(=O)c2cc3ccccn3c2)n1` (centres undefined) | 9.184 | 10.15 |
| `CC1CCN(C(=O)C2CC(=O)N(c3cnn(C(C)C)c3)C2)CC1` (centres undefined) | 8.247 | 3.803 |
| `Cc1csc(N2CCN(C(=O)CCC(=O)c3ccc(C)s3)CC2)n1` | 2.256 | 5.813 |
| `CCc1nccn1C1CCCN(C(=O)c2ccnc(N(C)C)c2)C1` (centres undefined) | -2.5 | -1.474 |
| `CN(C)c1ccc(CNCc2ccc(N3CCOCC3)cc2)cn1` | 10.5 | -2.232 |
| `CC(C)(C)SCC(=O)NC(C)(C(N)=O)c1cccc(Cl)c1` (centres undefined) | 1.98 | -2.913 |
| `O=C(CCc1ccc(O)cc1)N1CCC(Cc2ccc(CO)cc2)C1` (centres undefined) | 8.943 | 0.8439 |
| `CN1CCOCC12CCN(Cc1ccoc1)CC2` | 11.11 | 2.927 |
| `CN1CC(=O)N(c2ccccc2)CC12CCN(C(=O)c1cnccn1)C2` (centres undefined) | 4.762 | -9.001 |
| `CC(NC(=O)NCCn1ccnc1)c1ccc2c(c1)OCCCO2` (centres undefined) | 5.143 | 0.5249 |
| `COCC1CN(C(=O)Cc2ccsc2)Cc2c1cnn2C` (centres undefined) | 8.163 | 5.068 |
| `CN(Cc1ccc2c(c1)OCO2)Cc1nc2c(cnn2C)c(=O)[nH]1` | -0.7576 | 5.509 |
| `CS(=O)(=O)CCC(=O)N(Cc1c(F)cccc1F)C1CCCC1` | 7.143 | 2.056 |
| `CS(=O)(=O)CCCOc1cccc(-n2ccnc2)c1` | 0.5236 | -3.212 |
| `O=C1CSC(c2ccncc2)c2c(n(C3CCOCC3)[nH]c2=O)N1` (centres undefined) | -5.263 | 0 |
| `CCN1CCC(NC(=O)Cc2csc(C(C)(C)C)n2)CC1` | -5.641 | 5.466 |
| `Cc1cnc(N2CC[C@@H]3O[C@@H](COCC(=O)N(C)C)CC[C@@H]32)nc1` | 5.521 | 4.481 |
| `Cc1ccc(CNC2CCCN(Cc3noc(C4CC4)n3)C2)s1` (centres undefined) | 4.678 | 4.592 |
| `CCCc1noc(C2CCCCN2C(=O)C2CCCC2)n1` (centres undefined) | 0.8772 | 7.233 |
| `CNC(=O)c1ccc2c(OC)n(C)nc2c1` | 3.093 | 1.057 |
| `CS(=O)(=O)N1CCN(C(=O)CCC2CCCO2)CC1` (centres undefined) | 7.937 | 4.339 |
| `Cc1nc(C(=O)N[C@H]2COC[C@@H]2N2CCCCC2)cs1` | 3.015 | 0.3236 |
| `Cc1n[nH]c(C)c1CCNC(=O)C1CCCN(CC(N)=O)C1` (centres undefined) | 5.556 | 4.202 |
| `CC(C)Cn1cncc1-c1nc2c([nH]1)CCCNC2=O` | 5.319 | -10.04 |
| `CC(C)(C)c1c[nH]c([C@@H]2COCCN2C2CCCCC2)n1` | 5.435 | 11.26 |
| `CN(CC(C)(CO)CO)C(=O)Nc1cc(F)cc(Cl)c1` | 7.216 | -6.264 |
| `Cc1cnn(C2CN(CC(=O)NCCc3c[nH]c4ccccc34)C2)c1` | 7.514 | 1.956 |
| `CCN(Cc1ccccc1)C(=O)c1cc(C2CCCN2C)ccn1` (centres undefined) | 14.98 | 5.081 |
| `CC(c1ccncc1)N1Cc2nc(N(C)C)ncc2C1=O` (centres undefined) | 4.386 | -5.626 |
| `COCCCNc1c(-c2ccc(Cl)cc2)c(=O)c1=O` | 13 | -3.557 |
| `COc1ccc(N2CCN(C(=O)c3nc(Cl)sc3C(C)C)CC2)cc1` | -2.484 | 0.8861 |

The first 4 entries again:

Result for Fc1ccc2[nH]c(C3CCCN3CCCn3cccn3)nc2c1 (centres undefined) was TcHisRS: 2.941%; CoaBC: 1.951%.
Result for CN(Cc1nc(-c2cccs2)no1)Cc1nc2c(s1)CCCC2 was TcHisRS: 6.878%; CoaBC: 4.888%.
Result for Cc1nc(C2CCCN2C(=O)Cc2ccc(F)cc2)nc(O)c1C (centres undefined) was TcHisRS: 0%; CoaBC: 1.703%.
Result for Cc1cc(CN2CCCC2Cn2cncn2)no1 (centres undefined) was TcHisRS: -3.053%; CoaBC: -0.5181%.

Measurements from “University of Dundee, Small-Polar-MMV Screening Library” (2021), ChEMBL document CHEMBL3988442.